Data set [1] relates to FaMYB63. In words: competition with a labelled probe. The conditions noted are these: mutant competitor against N1 probe did not affect binding; EMSA Kit (Beyotime), according to Wang, Shi, et al. 2022; pH and temperature not stated; recombinant protein; protein details: GST. (Mobility shift assays separate free from complexed probe on a gel.)
Data set [2] relates to FaMYB63. In words: EMSA. Particulars: wild-type competitor distinctly reduced binding; EMSA Kit (Beyotime), according to Wang, Shi, et al. 2022; pH and temperature not stated; recombinant protein; protein details: GST.

Construct, isoform or probe ends are uncertain for at least one entry. For some assays here: Negatives hold for the conditions tested.

In the case of “CATTTTATTTTGTTCACAAGGAGAGAAGGAGCCAATTAGGTACCAAT (double strand) [FvPR10.14-mP (FaMYB63 mutant probe)]”, the binding result in data set [1] is recorded as “no binding”.
As to “CATTTTATTTTGTTCACTTCACCATCCAAAGCCAATTAGGTACCAAT (double strand) [FvPR10.14-P (FaMYB63 probe)]”, the binding result in data set [2] is reported as “binds”.
